Results are given in words; binding and its absence hold for the method and conditions named. In cells and extracts the contact can be indirect. Some entries that bind do so weakly or less than the wild type.
Target: N-terminally GST-tagged human γ-tubulin (human) (UniProt P23258)
Experiment: pull-down; GST-tagged human γ-tubulin or GST alone with whole-cell extracts; immunoblot; only the target purified

The chains behind the UniProt entries cited, without tags or fusion partners.
UniProt P23258: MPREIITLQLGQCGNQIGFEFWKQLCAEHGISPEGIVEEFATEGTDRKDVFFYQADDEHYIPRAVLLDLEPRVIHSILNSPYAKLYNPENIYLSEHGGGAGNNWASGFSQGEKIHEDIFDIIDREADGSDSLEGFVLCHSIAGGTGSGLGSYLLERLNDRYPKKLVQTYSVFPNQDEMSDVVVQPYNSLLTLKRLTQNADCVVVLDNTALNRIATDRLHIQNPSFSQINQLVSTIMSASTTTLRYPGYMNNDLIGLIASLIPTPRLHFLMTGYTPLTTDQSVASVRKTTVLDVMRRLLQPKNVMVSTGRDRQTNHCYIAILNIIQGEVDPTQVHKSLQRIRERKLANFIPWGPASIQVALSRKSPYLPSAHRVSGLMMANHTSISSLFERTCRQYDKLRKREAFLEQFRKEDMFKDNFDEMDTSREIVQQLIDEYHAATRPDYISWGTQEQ

Binder	binding
G protein-coupled receptor kinase-interacting protein 2 (GIT2), GIT2-long, endogenous (protein, UniProt Q9JLQ2 1-708) MSKRLRSSDVCADCNGPDPSWASVNRGTFICDECCSVHRSLGRHISQVRHLKHTAWPPTLLQMVETLYNNGANSIWEHSLLDPASIMSGRRKANPQDKVHPNKAEFIRAKYQMLAFVHRLPCREDDSVTAKDLSKQLHSSVRTGNLETCLRLLSLGAQANFFHPEKGSTPLHVASKAGQILQAELLAVYGADPGTQDSSGKTPVDYARQGGHHELAERLIEIQYELTDRLAFYLCGRKPDHKSGQHFLIPQRADSLDLSELAKAAKKKLQSLSNHLFEELAMDVYDEVDRRETDAVWLATQNHSTLVTETTVVPFLPVNPEYSSTRNQGRQKLARFNAHEFATLVIDILSDAKRRQQGSPLSRSKDNVELILRTVSTQHSTESQDNDQPDYDSVASDEDTDVETRASKANRQKLQTLQSENSSLRRQATASACQVQTGSDHKDTASHSSLKRRPSARGSRPMSMYETGSGQKPYLPMGEASHPEESRTRLQPFPTHIGRSALVTSSSSLPSFPSTLSWSRDESARRASRLEKQNSTPESDYDNTACDPEPDDTGSTRKGRQRSMLWQGDGLLPDTAEPHSVPSPTLPSTEDVIRKTEQITKNIQELLRAAQENKHDSYIPCSERIHVAVTEMAALFPKKPKSDTVRTSLRLLTSSAYRLQSECRKALPGDSSLPTDVQLVTQQVIQCAYDIAKAAKQLVTITTKENSS	binds
β-PIX (p21-activated kinase interacting exchange factor), endogenous (protein, UniProt Q9ES28 1-862) MNSAEQTVTWLITLGVLESPKKTISDPEVFLQASLKDGVVLCRLLERLLPGTIEKVYPEPRNESECLSNIREFLRACGASLRLETFDANDLYQGQNFNKVLSSLVTLNKVTADIGLGSDSVCARPSSHRIKSFDSLGSQSSHSRTSKLLQSQYRSLDMTDNTNSQLVVRAKFNFQQTNEDELSFSKGDVIHVTRVEEGGWWEGTHNGRTGWFPSNYVREIKPSEKPVSPKSGTLKSPPKGFDTTAINKSYYNVVLQNILETEHEYSKELQSVLSTYLRPLQTSDKLSSANTSYLMGNLEEISSFQQVLVQSLEECTKSPEAQQRVGGCFLSLMPQMRTLYLAYCANHPSAVSVLTEHSEDLGEFMETKGASSPGILVLTTGLSKPFMRLDKYPTLLKELERHMEDYHPDRQDIQKSMTAFKNLSAQCQEVRKRKELELQILTEPIRSWEGDDIKTLGSVTYMSQVTIQCAGSEEKNERYLLLFPNLLLMLSASPRMSGFIYQGKLPTTGMTITKLEDSENHRNAFEISGSMIERILVSCTSQQDLHEWVEHLQKQTKVTSVSNPTIKPHSVPSHTLPSHPLTPSSKHADSKPVALTPAYHTLPHPSHHGTPHTTISWGPLEPPKTPKPWSLSCLRPAPPLRPSAALCYKEDLSKSPKTMKKLLPKRKPERKPSDEEFAVRKSTAALEEDAQILKVIEAYCTSAKTRQTLNSTWQGTDLMHNHVLADDDQSSLDSLGRRSSLSRLEPSDLSEDSEYDSIWTAHSYRMGSASRSRKESAPQVLLPEEEKIIVEETKSNGQTVIEEKSLVDTVYALKDEVQELRQDNKKMKKSLEEEQRARKDLEKLVRKVLKNMNDPAWDETNL	binds

— paper PMC10870779
